Data taken from patent US20260256792A1, “TREATMENT OF CHRONIC SPONTANEOUS URTICARIA BY ADMINISTERING (R)-2-[3-[4-AMINO-3-(2-FLUORO-4-PHENOXY-PHENYL)PYRAZOLO[3,4-D]PYRIMIDIN-1-YL]PIPERIDINE-1-CARBONYL]-4-METHYL-4-[4-(OXETAN-3-YL)PIPERAZIN-1-YL]PENT-2-ENENITRILE” (priority 2023, published 2026).
This continues a long series; more values of the same kind are listed elsewhere.

Tested on: moderate-to-severe chronic spontaneous urticaria (CSU)
Experiment: Phase 2 CSU study: urticaria activity score over 7 days (UAS7)
Format: in vivo, human
Conditions: Omalizumab-Naïve
Source text: The study comprises a 12 week, randomized, double-blind, placebo-controlled, multi-center, dose-ranging efficacy and safety phase, followed by a 40 week open label extension (OLE) phase (see FIG. 1). The study consists of three phases and an optional OLE phase. […] Clinically, CSU is characterized by the spontaneous and recurrent appearance of pruritic hives. The proposed primary endpoints were the UAS7 at Week 12 in EU and EU reference countries and the ISS7 in the US. Regardless of where a participant was from, all assessments were the same. The UAS7 score is a composite score containing both the HSS7 and the ISS7. This allowed a global assessment of the two key components of urticaria: hives and itch. […] The UAS is a validated PRO measure. […] The daily UAS scores range from 0 to 6 point/day. […] Patients were to complete the UAS using the e-diary. […] The following secondary endpoints were to be analyzed using the same approach as for the primary endpoint: • Change from baseline in UAS7 at Week 4 • Change from baseline in UAS7 at Week 12 (for US and US reference countries) • Change from baseline in ISS7 at Week 12 (except US and US reference countries) • Change from baseline in HSS7 at Week 12 The following responder secondary endpoints were to be analyzed using the Cochran-Mantel-Haenszel test adjusted by region: • Proportion of participants with UAS7<6 at Week 12 • Proportion of participants with UAS7=0 at Week 12 Participants who received selected prohibited medications and/or rescue medications were to be considered as non-responders for time points after the medication usage. For other participants, all available data including those collected during the off-treatment period were to be used to determine the responder/non-responder status. Missing data were to be considered as non-responders.

[1] = Baseline BMI (kg/m^2) <25, 400 mg BID
[2] = Baseline BMI (kg/m^2) <25, 400 mg QPM
[3] = Baseline BMI (kg/m^2) <25, 400 mg TID
[4] = Baseline BMI (kg/m^2) ≥25-<30, 400 mg BID
[5] = Baseline BMI (kg/m^2) ≥25-<30, 400 mg QPM
[6] = Baseline BMI (kg/m^2) ≥25-<30, 400 mg TID
[7] = Baseline BMI (kg/m^2) ≥30, 400 mg BID
[8] = Baseline BMI (kg/m^2) ≥30, 400 mg QPM
[9] = Baseline BMI (kg/m^2) ≥30, 400 mg TID
[10] = Baseline weight (kg) <60, 400 mg BID
[11] = Baseline weight (kg) <60, 400 mg QPM
[12] = Baseline weight (kg) <60, 400 mg TID
[13] = Baseline weight (kg) <72.9 (Median), 400 mg BID
[14] = Baseline weight (kg) <72.9 (Median), 400 mg QPM
[15] = Baseline weight (kg) <72.9 (Median), 400 mg TID
[16] = Baseline weight (kg) ≥60-<90, 400 mg BID
[17] = Baseline weight (kg) ≥60-<90, 400 mg QPM
[18] = Baseline weight (kg) ≥60-<90, 400 mg TID
[19] = Baseline weight (kg) ≥72.9 (Median), 400 mg BID
[20] = Baseline weight (kg) ≥72.9 (Median), 400 mg QPM
[21] = Baseline weight (kg) ≥72.9 (Median), 400 mg TID
[22] = Baseline weight (kg) ≥90, 400 mg BID
[23] = Baseline weight (kg) ≥90, 400 mg QPM
[24] = Baseline weight (kg) ≥90, 400 mg TID

CC(C)(C=C(C#N)C(=O)N1CCC[C@@H](n2nc(-c3ccc(Oc4ccccc4)cc3F)c3c(N)ncnc32)C1)N1CCN(C2COC2)CC1 [rilzabrutinib, (R)-2-[3-[4-amino-3-(2-fluoro-4-phenoxy-phenyl)pyrazolo[3,4-d]pyrimidin-1-yl]piperidine-1-carbonyl]-4-methyl-4-[4-(oxetan-3-yl)piperazin-1-yl]pent-2-enenitrile]
Change from Baseline in UAS7 at Week 12: LS Mean (SE) [1]: −14.48 (2.43) | Change from Baseline in UAS7 at Week 12: LS Mean Diff vs. placebo (95% CI) [1]: −5.83 (−12.83, 1.16) | Change from Baseline in UAS7 at Week 12: Mean (SD) [1]: −14.44 (11.30) | Change from Baseline in UAS7 at Week 12: LS Mean (SE) [2]: −6.27 (2.66) | Change from Baseline in UAS7 at Week 12: LS Mean Diff vs. placebo (95% CI) [2]: 2.37 (−4.98, 9.73) | Change from Baseline in UAS7 at Week 12: Mean (SD) [2]: −7.00 (7.22) | Change from Baseline in UAS7 at Week 12: LS Mean (SE) [3]: −17.23 (3.19) | Change from Baseline in UAS7 at Week 12: LS Mean Diff vs. placebo (95% CI) [3]: −8.58 (−16.69, −0.47) | Change from Baseline in UAS7 at Week 12: Mean (SD) [3]: −17.02 (13.10) | Change from Baseline in UAS7 at Week 12: LS Mean (SE) [4]: −11.34 (4.80) | Change from Baseline in UAS7 at Week 12: LS Mean Diff vs. placebo (95% CI) [4]: −2.01 (−14.35, 10.33) | Change from Baseline in UAS7 at Week 12: Mean (SD) [4]: −13.03 (16.22) | Change from Baseline in UAS7 at Week 12: LS Mean (SE) [5]: −7.48 (3.95) | Change from Baseline in UAS7 at Week 12: LS Mean Diff vs. placebo (95% CI) [5]: 1.85 (−9.71, 13.42) | Change from Baseline in UAS7 at Week 12: Mean (SD) [5]: −10.92 (12.01) | Change from Baseline in UAS7 at Week 12: LS Mean (SE) [6]: −14.99 (2.89) | Change from Baseline in UAS7 at Week 12: LS Mean Diff vs. placebo (95% CI) [6]: −5.67 (−15.50, 4.16) | Change from Baseline in UAS7 at Week 12: Mean (SD) [6]: −19.44 (10.56) | Change from Baseline in UAS7 at Week 12: LS Mean (SE) [7]: −15.87 (4.21) | Change from Baseline in UAS7 at Week 12: Mean (SD) [7]: −16.50 (13.23) | Change from Baseline in UAS7 at Week 12: LS Mean (SE) [8]: −14.65 (3.89) | Change from Baseline in UAS7 at Week 12: Mean (SD) [8]: −15.85 (8.40) | Change from Baseline in UAS7 at Week 12: LS Mean (SE) [9]: −21.80 (5.17) | Change from Baseline in UAS7 at Week 12: Mean (SD) [9]: −23.25 (10.60) | Change from Baseline in UAS7 at Week 12: LS Mean (SE) [10]: −11.36 (3.92) | Change from Baseline in UAS7 at Week 12: LS Mean Diff vs. placebo (95% CI) [10]: −3.35 (−13.61, 6.91) | Change from Baseline in UAS7 at Week 12: Mean (SD) [10]: −10.00 (9.76) | Change from Baseline in UAS7 at Week 12: LS Mean (SE) [11]: −6.74 (4.50) | Change from Baseline in UAS7 at Week 12: Mean (SD) [11]: −7.82 (8.01) | Change from Baseline in UAS7 at Week 12: LS Mean (SE) [12]: −19.90 (4.01) | Change from Baseline in UAS7 at Week 12: LS Mean Diff vs. placebo (95% CI) [12]: −11.88 (−22.36, −1.40) | Change from Baseline in UAS7 at Week 12: Mean (SD) [12]: −19.50 (14.84) | Change from Baseline in UAS7 at Week 12: LS Mean (SE) [13]: −13.03 (2.58) | Change from Baseline in UAS7 at Week 12: LS Mean Diff vs. placebo (95% CI) [13]: −2.19 (−9.21, 4.84) | Change from Baseline in UAS7 at Week 12: LS Mean (SE) [14]: −7.76 (2.45) | Change from Baseline in UAS7 at Week 12: LS Mean Diff vs. placebo (95% CI) [14]: 3.08 (−3.85, 10.01) | Change from Baseline in UAS7 at Week 12: LS Mean (SE) [15]: −18.62 (2.85) | Change from Baseline in UAS7 at Week 12: LS Mean Diff vs. placebo (95% CI) [15]: −7.78 (−15.19, −0.37) | Change from Baseline in UAS7 at Week 12: LS Mean (SE) [16]: −13.31 (2.65) | Change from Baseline in UAS7 at Week 12: LS Mean Diff vs. placebo (95% CI) [16]: −2.12 (−9.70, 5.46) | Change from Baseline in UAS7 at Week 12: Mean (SD) [16]: −15.04 (13.16) | Change from Baseline in UAS7 at Week 12: LS Mean (SE) [17]: −9.11 (2.26) | Change from Baseline in UAS7 at Week 12: LS Mean Diff vs. placebo (95% CI) [17]: 2.08 (−5.04, 9.20) | Change from Baseline in UAS7 at Week 12: LS Mean (SE) [18]: −15.74 (2.43) | Change from Baseline in UAS7 at Week 12: LS Mean Diff vs. placebo (95% CI) [18]: −4.55 (−11.84, 2.73) | Change from Baseline in UAS7 at Week 12: Mean (SD) [18]: −18.74 (10.60) | Change from Baseline in UAS7 at Week 12: LS Mean (SE) [19]: −15.67 (3.01) | Change from Baseline in UAS7 at Week 12: LS Mean Diff vs. placebo (95% CI) [19]: −7.75 (−16.17, 0.68) | Change from Baseline in UAS7 at Week 12: Mean (SD) [19]: −16.91 (15.27) | Change from Baseline in UAS7 at Week 12: LS Mean (SE) [20]: −11.30 (3.07) | Change from Baseline in UAS7 at Week 12: LS Mean Diff vs. placebo (95% CI) [20]: −3.37 (−11.78, 5.05) | Change from Baseline in UAS7 at Week 12: Mean (SD) [20]: −13.96 (10.98) | Change from Baseline in UAS7 at Week 12: LS Mean (SE) [21]: −16.27 (2.71) | Change from Baseline in UAS7 at Week 12: LS Mean Diff vs. placebo (95% CI) [21]: −8.35 (−16.31, −0.38) | Change from Baseline in UAS7 at Week 12: Mean (SD) [21]: −17.48 (9.72) | Change from Baseline in UAS7 at Week 12: LS Mean (SE) [22]: −20.74 (5.01) | Change from Baseline in UAS7 at Week 12: LS Mean Diff vs. placebo (95% CI) [22]: −11.96 (−25.48, 1.56) | Change from Baseline in UAS7 at Week 12: Mean (SD) [22]: −22.00 (9.00) | Change from Baseline in UAS7 at Week 12: LS Mean (SE) [23]: −14.44 (7.38) | Change from Baseline in UAS7 at Week 12: LS Mean Diff vs. placebo (95% CI) [23]: −5.66 (−22.88, 11.55) | Change from Baseline in UAS7 at Week 12: Mean (SD) [23]: −16.67 (9.07) | Change from Baseline in UAS7 at Week 12: LS Mean (SE) [24]: −20.81 (7.30) | Change from Baseline in UAS7 at Week 12: LS Mean Diff vs. placebo (95% CI) [24]: −12.03 (−29.07, 5.01) | Change from Baseline in UAS7 at Week 12: Mean (SD) [24]: −19.44 (9.03) | Change from Baseline in UAS7 at Week 12: LS Mean (SE) (Gender Female, 400 mg BID): −12.97 (2.46) | Change from Baseline in UAS7 at Week 12: LS Mean Diff vs. placebo (95% CI) (Gender Female, 400 mg BID): −1.57 (−8.27, 5.12) | Change from Baseline in UAS7 at Week 12: LS Mean (SE) (Gender Female, 400 mg QPM): −9.27 (2.22) | Change from Baseline in UAS7 at Week 12: LS Mean Diff vs. placebo (95% CI) (Gender Female, 400 mg QPM): 2.13 (−4.34, 8.59) | Change from Baseline in UAS7 at Week 12: LS Mean (SE) (Gender Female, 400 mg TID): −18.51 (2.16) | Change from Baseline in UAS7 at Week 12: LS Mean Diff vs. placebo (95% CI) (Gender Female, 400 mg TID): −7.12 (−13.39, −0.85) | Change from Baseline in UAS7 at Week 12: LS Mean Diff vs. placebo (95% CI) (Gender Male, 400 mg BID): −9.97 (−19.70, −0.25) | Change from Baseline in UAS7 at Week 12: LS Mean Diff vs. placebo (95% CI) (Gender Male, 400 mg QPM): −2.15 (−12.83, 8.54) | Change from Baseline in UAS7 at Week 12: LS Mean (SE) (Gender Male, 400 mg TID): −11.21 (4.99) | Change from Baseline in UAS7 at Week 12: LS Mean Diff vs. placebo (95% CI) (Gender Male, 400 mg TID): −4.51 (−16.53, 7.51)
